# Screening data, single-dose tests

Protein sequences, listed by entry. Tags and fused reporters are not part of them. Residues count along the entry.
UniProt Q4DA54, 1-478: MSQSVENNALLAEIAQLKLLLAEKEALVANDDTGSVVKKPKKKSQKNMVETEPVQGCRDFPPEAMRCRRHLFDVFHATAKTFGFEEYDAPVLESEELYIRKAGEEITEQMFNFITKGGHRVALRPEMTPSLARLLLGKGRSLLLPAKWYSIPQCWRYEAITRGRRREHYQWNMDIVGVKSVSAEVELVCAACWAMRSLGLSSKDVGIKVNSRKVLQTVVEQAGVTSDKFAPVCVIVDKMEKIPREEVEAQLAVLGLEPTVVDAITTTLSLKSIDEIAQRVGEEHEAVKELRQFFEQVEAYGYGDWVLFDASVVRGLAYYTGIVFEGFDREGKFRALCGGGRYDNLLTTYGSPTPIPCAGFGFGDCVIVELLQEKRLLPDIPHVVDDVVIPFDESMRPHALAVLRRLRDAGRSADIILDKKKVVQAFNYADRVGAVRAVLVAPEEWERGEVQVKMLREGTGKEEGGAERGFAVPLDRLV
UniProt I6X8D2, whole entry: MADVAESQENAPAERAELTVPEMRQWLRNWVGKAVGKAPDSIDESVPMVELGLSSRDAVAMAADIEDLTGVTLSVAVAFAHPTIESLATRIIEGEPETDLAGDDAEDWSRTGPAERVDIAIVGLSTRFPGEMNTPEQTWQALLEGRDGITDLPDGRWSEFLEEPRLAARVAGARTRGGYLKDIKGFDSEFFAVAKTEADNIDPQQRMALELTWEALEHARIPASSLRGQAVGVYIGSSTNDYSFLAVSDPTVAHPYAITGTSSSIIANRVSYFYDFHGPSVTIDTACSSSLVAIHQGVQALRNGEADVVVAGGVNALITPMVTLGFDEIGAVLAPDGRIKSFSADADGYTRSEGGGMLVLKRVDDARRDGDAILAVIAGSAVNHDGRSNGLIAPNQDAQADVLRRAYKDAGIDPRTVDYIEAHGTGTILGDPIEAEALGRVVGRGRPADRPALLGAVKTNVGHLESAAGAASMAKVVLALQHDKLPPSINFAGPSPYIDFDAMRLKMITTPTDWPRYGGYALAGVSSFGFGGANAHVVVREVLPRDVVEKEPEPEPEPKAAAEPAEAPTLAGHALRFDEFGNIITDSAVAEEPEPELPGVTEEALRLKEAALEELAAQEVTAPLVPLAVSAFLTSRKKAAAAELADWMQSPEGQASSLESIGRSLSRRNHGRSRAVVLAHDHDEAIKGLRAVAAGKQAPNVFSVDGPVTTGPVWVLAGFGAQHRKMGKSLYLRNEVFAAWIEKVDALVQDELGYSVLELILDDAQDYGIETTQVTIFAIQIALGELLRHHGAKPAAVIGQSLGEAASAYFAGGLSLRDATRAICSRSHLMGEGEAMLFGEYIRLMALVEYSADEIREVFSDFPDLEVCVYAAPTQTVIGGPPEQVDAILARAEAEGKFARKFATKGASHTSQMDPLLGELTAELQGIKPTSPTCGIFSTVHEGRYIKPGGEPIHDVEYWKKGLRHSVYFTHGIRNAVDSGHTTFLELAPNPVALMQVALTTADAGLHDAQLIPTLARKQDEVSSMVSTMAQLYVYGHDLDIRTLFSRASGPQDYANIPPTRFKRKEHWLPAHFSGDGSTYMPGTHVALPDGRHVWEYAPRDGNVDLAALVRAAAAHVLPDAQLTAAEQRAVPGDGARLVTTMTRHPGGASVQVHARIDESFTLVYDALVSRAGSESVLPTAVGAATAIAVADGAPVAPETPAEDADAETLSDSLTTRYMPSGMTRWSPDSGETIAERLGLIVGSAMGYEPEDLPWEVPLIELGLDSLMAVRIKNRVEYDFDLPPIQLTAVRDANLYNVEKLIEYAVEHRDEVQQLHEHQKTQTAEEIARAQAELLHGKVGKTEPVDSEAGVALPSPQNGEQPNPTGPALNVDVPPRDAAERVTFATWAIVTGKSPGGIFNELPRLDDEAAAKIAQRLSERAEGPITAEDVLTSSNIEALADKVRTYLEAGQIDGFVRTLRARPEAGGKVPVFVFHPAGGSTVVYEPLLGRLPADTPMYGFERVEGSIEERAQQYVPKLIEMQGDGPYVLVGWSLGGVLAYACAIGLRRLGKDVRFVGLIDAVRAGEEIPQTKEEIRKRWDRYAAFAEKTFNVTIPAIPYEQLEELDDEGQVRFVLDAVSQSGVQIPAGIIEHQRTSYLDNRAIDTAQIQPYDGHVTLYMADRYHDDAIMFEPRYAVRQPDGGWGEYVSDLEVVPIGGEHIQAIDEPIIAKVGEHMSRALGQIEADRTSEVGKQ
UniProt P9WNZ1, whole entry: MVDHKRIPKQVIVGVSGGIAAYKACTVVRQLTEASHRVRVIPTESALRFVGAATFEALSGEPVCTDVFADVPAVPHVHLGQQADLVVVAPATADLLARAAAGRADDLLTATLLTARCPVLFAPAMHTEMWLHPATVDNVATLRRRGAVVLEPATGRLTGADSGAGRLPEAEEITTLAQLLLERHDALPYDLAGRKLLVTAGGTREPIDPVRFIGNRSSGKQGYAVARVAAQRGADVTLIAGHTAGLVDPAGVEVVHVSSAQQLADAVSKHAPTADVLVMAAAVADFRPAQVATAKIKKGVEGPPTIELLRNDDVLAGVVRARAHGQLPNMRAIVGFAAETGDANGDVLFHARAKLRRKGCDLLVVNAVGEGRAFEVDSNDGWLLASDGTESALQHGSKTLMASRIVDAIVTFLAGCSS
UniProt Q8IDJ8, 1-583: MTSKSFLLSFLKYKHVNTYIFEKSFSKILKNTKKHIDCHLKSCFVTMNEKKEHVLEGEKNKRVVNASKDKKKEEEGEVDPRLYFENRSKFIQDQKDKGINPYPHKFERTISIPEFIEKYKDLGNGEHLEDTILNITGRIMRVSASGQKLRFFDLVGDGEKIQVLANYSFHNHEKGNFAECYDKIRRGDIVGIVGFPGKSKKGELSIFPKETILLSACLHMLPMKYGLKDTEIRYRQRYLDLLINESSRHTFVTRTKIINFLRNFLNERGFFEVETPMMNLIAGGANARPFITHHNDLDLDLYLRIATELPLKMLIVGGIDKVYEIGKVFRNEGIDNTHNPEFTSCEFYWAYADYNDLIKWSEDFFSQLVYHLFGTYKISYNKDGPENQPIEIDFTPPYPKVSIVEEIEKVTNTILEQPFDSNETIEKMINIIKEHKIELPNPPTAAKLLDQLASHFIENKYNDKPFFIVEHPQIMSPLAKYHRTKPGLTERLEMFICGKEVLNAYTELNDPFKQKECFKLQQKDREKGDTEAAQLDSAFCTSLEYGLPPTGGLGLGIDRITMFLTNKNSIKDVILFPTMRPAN
UniProt P9WFT3, whole entry: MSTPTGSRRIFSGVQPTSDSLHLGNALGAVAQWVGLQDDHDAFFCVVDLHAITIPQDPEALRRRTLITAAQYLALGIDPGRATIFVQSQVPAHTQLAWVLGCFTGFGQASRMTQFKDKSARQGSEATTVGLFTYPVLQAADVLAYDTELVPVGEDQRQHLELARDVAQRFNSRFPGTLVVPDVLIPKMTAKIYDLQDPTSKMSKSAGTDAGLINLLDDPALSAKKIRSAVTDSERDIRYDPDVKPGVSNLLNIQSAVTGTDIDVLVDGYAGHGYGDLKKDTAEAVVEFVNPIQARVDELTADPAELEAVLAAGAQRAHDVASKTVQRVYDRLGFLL

Measurements from “University of Dundee, Small-Polar-MMV Screening Library” (2021), ChEMBL document CHEMBL3988442.

Each number is a percent effect as filed.
How 0% and 100% were set is not recorded. Most values in the screen are low, and negative values occur.
Compounds were drawn at random from those tested, without regard to their results.

A: 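Histidine-tRNA ligase, Trypanosoma cruzi CL Brener (UniProt Q4DA54). Enzyme assay of histidyl-tRNA synthetase; the read-out is not stated. Compounds at 30 µM. The record gives no direction; compounds that gave an IC50 in retests scored well above the rest, so higher reads as stronger inhibition. Size under these conditions: about 69,000 compounds, about 31 of them at 50% or above in at least one test.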
B: 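Polyketide synthase Pks13, Mycobacterium tuberculosis (UniProt I6X8D2). Enzyme assay of the thioesterase domain of polyketide synthase 13; the read-out is not stated. Compounds at 30 µM. The record gives no direction; the compounds picked for IC50 retests had high values, so higher reads as stronger inhibition. Size under these conditions: about 67,000 compounds, about 300 of them at 50% or above in at least one test.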
C: 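Coenzyme A biosynthesis protein CoaBC, Mycobacterium tuberculosis (UniProt P9WNZ1). Enzyme assay of CoaBC with a phosphate dye (Biomol Green) read at 650 nm. Concentration: 30 µM. Direction is inferred from only a few compounds that gave an IC50; most scored high, so higher reads as stronger inhibition. Most strong results did not repeat in a second test. About 67,000 compounds were tested under these conditions; 0.06% (about 40) showed 50% or more at least once.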
D: 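Cell assay of Leishmania donovani living inside macrophages; the read-out is not stated. Tested at 30 µM. Higher reads as stronger inhibition (inferred: compounds with an IC50 in retests scored well above the rest). Of about 69,000 compounds tested this way, about 1,000 (1.5%) reached 50% or more in at least one test.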
E: 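Enzyme assay of the cytosolic lysyl-tRNA synthetase in 384-well plates, read by luminescence. Target: Lysine-tRNA ligase, Plasmodium falciparum 3D7 (UniProt Q8IDJ8). Concentration: 30 µM. Direction is inferred from only a few compounds that gave an IC50; most scored high, so higher reads as stronger inhibition. Size under these conditions: about 69,000 compounds, about 49 of them at 50% or above in at least one test.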
F: 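Enzyme assay of tryptophanyl-tRNA synthetase; the read-out is not stated. Target: Tryptophan-tRNA ligase, Mycobacterium tuberculosis (UniProt P9WFT3). Compounds at 10 µM. Higher most likely means stronger inhibition; the record gives no direction and few retests gave an IC50. Size under these conditions: about 65,000 compounds, about 64 of them at 50% or above in at least one test.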

{"structure": "O=C(Cc1ccon1)NC1CC2(CCC2)Oc2ccccc21", "stereo": "stereo unspecified", "A": 7.447, "B": -35.51, "C": 0.6508, "D": 31.09, "E": 4.799, "F": -2.062}
{"structure": "CN(C)C(C(=O)N1CCC(c2ncc[nH]2)CC1)c1ccc2c(c1)OCO2", "stereo": "stereo unspecified", "A": 6.087, "B": -5.029, "C": -0.8168, "D": 48.61, "E": -5.696, "F": 3.207}
{"structure": "CC(C)NC[C@@]1(COc2ccccc2)C[C@@H](O)[C@@H](O)C1.Cl", "D": -0.6489}
{"structure": "CC(=O)c1ccc(S(=O)(=O)NCC2CCN(c3cnccn3)CC2)cc1", "A": 12, "B": 30.02, "C": 3.03, "D": 17.98, "E": 3.934, "F": -0.1696}
{"structure": "CCc1nnc(CNC(=O)CCC2CCCN(C)C2)s1", "stereo": "stereo unspecified", "A": 4.762, "B": -8.014, "C": -7.356, "D": 4.354, "E": 6.67, "F": 1.519}
{"structure": "O=C(CCc1cc(Cl)no1)N1CCCCC1CCN1CCOCC1", "stereo": "stereo unspecified", "A": 6.186, "B": -17.08, "C": 4.615, "D": 11.47, "E": 6.025, "F": 5.823}
{"structure": "COCCn1ccc(NCc2scnc2C)n1", "A": 10.34, "B": -10.9, "C": 1.768, "D": 1.674, "E": 4.743, "F": 6.743}
{"structure": "O=C1CC2(CCSC2)C(=O)N1Cc1ncc(-c2cccc(F)c2)o1", "stereo": "stereo unspecified", "A": 2.762, "B": -39.89, "C": 3.571, "D": 21.74, "E": -0.4537, "F": -0.7224}
{"structure": "COCCN1C2(CCN(CC3CC3)C2)c2ccccc2S1(=O)=O.O=C(O)C(F)(F)F", "stereo": "stereo unspecified", "D": -0.686}
{"structure": "Cn1cccc1C(=O)N1CC[C@H]2[C@H]1CCN2CC1CCOCC1", "A": 7.527, "B": -33.66, "C": 6.131, "E": 1.237, "F": 3.312}
{"structure": "COc1cccc(S(=O)(=O)N2CCCCC2CCN2CCOCC2)c1", "stereo": "stereo unspecified", "A": 6.087, "B": -16.97, "C": -2.217, "D": -2.354, "E": -8.215, "F": -2.78}
{"structure": "COCCNc1cc(C2CCCNC2)ccn1", "stereo": "stereo unspecified", "A": 2.682, "B": 11.15, "C": 1.435, "E": -0.1993, "F": 0.9115}
{"structure": "CN1CCCCC1CC(=O)Nc1ccc2ncn(C)c2c1", "stereo": "stereo unspecified", "A": 0.7576, "C": -6.045, "D": 15.16, "E": 0.8679, "F": 16.86}
{"structure": "CCS(=O)(=O)N1CCOC2(CCCN(c3cnccn3)C2)C1", "stereo": "stereo unspecified", "A": 2.941, "B": -21.67, "C": 5.863, "E": 7.951, "F": 1.465}
{"structure": "Cn1c(NCC(=O)N2CCCC2)c(C#N)c(=O)n(C)c1=O", "A": -4.211, "B": 51.45, "C": 9.163, "D": -4.342, "E": -3.629, "F": 1.051}
{"structure": "CCc1csc(C2CCCN(C(=O)c3cc(Cl)c[nH]3)C2)n1", "stereo": "stereo unspecified", "A": 4.36, "B": -4.273, "C": 1.513, "D": -37.17, "E": -0.02117, "F": -6.215}
{"structure": "O=S(=O)(CCN1CCCC1Cn1cccn1)c1ccccc1", "stereo": "stereo unspecified", "A": 2.97, "B": -5.282, "C": 5.69, "D": -53.88, "E": -0.6664, "F": 1.089}
{"structure": "COc1ccc2c(c1)CN(Cc1ccco1)C(=O)CCN2CC(C)(C)O", "A": 2.312, "B": -0.386, "C": 0.6135, "D": 10.29, "E": 3.001}
{"structure": "CCn1cc(NC(=O)NCC(c2ccsc2)N(C)C)cn1", "stereo": "stereo unspecified", "A": 7.692, "B": -17.52, "C": 6.21, "D": 19.68, "E": 1.963, "F": -3.955}
{"structure": "CC1(C)CN(C(CNS(C)(=O)=O)c2ccc(Cl)cc2)CCO1", "stereo": "stereo unspecified", "A": 9.392, "B": -23.77, "C": -9.821, "D": 30.45, "E": 0.166, "F": -4.438}

Once more, the final 2:

{"structure": "CCn1cc(NC(=O)NCC(c2ccsc2)N(C)C)cn1", "stereo": "stereo unspecified", "A": 7.692, "B": -17.52, "C": 6.21, "D": 19.68, "E": 1.963, "F": -3.955}
{"structure": "CC1(C)CN(C(CNS(C)(=O)=O)c2ccc(Cl)cc2)CCO1", "stereo": "stereo unspecified", "A": 9.392, "B": -23.77, "C": -9.821, "D": 30.45, "E": 0.166, "F": -4.438}